Results are given in words; binding and its absence hold for the method and conditions named. Binding seen in cells or lysates may run through a third protein. Here binding means that the protein was enriched with, or labelled near, the bait; the list need not be complete.
B1: endogenous CP2c (protein, UniProt Q12800 1-502)
chain: MAWALKLPLADEVIESGLVQDFDASLSGIGQELGAGAYSMSDVLALPIFKQEESSLPPDNENKILPFQYVLCAATSPAVKLHDETLTYLNQGQSYEIRMLDNRKLGELPEINGKLVKSIFRVVFHDRRLQYTEHQQLEGWRWNRPGDRILDIDIPMSVGIIDPRANPTQLNTVEFLWDPAKRTSVFIQVHCISTEFTMRKHGGEKGVPFRVQIDTFKENENGEYTEHLHSASCQIKVFKPKGADRKQKTDREKMEKRTPHEKEKYQPSYETTILTECSPWPEITYVNNSPSPGFNSSHSSFSLGEGNGSPNHQPEPPPPVTDNLLPTTTPQEAQQWLHRNRFSTFTRLFTNFSGADLLKLTRDDVIQICGPADGIRLFNALKGRMVRPRLTIYVCQESLQLREQQQQQQQQQQKHEDGDSNGTFFVYHAIYLEELTAVELTEKIAQLFSISPCQISQIYKQGPTGIHVLISDEMIQNFQEEACFILDTMKAETNDSYHIILK

Biological target: SUMO1 (construct not stated) (UniProt P63165)
Experiment: affinity purification with mass spectrometry; DSP crosslinking, sequential IP of SUMO1 and PSME3, MALDI-TOF MS, MASCOT; positive when found in duplicated experiments

binding, binds:
BRD4 (from UniProt O60885 1-1362), p53 (from UniProt P04637 1-393), B1

From publication PMC9882985 (Science Advances, 2023)
